Source: patent publication KR20240094169A
No constants are given. Whether binding was seen depends on the method and setting. Some binding calls cover weakened binding; strength is not graded here.

Chains of the proteins cited; added tags and fusions are not shown. Residues count along the entry.
UniProt Q02223, residues 1-54: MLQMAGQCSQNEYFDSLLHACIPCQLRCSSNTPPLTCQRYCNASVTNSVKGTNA

B1: 항-BCMA sdAb No.7 (VHH)
VHH: KLEESGGGSVQTGGSLRLTCAASGSIFSSGFMAWFRQAPGKEREFVSGISWRGDSTGYADSVKGRFTISRDNAKNTVDLQMNSLKPEDTAIYYCAARGTDTAYWGQGTQVTVSS
B2: 항-BCMA sdAb No.11 (VHH)
VHH: KLEESGGGSVQTGGSLRLTCAASGSISRLDNMGWFRQAPGKERELVAAINSKSNKTNYADSVKGRFTISRDNAKNTVDLQMNSLKPEDTAIYYCANWSFDKHRAYWGQGTQVTVSS
B3: 항-BCMA sdAb No.19 (VHH)
VHH: KLEESGGGSVQTGGSLRLTCAASGIIFSDDAIGWFRQAPGKERELVSLIDSKSSTYYADSVKGRFTISRDNAKNTVDLQMNSLKPEDTAIYYCNDHKRRQAMEYWGQGTQVTVSS

Each binder was assayed against BCMA (antigen used for phage panning and ELISA screening) (UniProt Q02223) (assay: ELISA screening of phage clones after panning on BCMA).

binding, binds:
B1
B2
B3
